Test results reported in patent US5686416A, “Increasing blood-brain barrier permeability with permeabilizer peptides” (priority 1993, dated 1997).
Not every detail of the peptide structures is certain; ends, links or a residue may be inferred. Square brackets hold non-standard residues; d marks the D form. Peptide text beside a SMILES is read from it. * marks the point of attachment. X3 = COc1ccc(C[C@H](CN[C@@H](CCCNC(=N)N)C(=O)O)N*)cc1; Hyp = O=C(O)[C@@H]1C[C@@H](O)CN1; 2Thi = N[C@@H](Cc1cccs1)C(=O)O

Tested on: blood-brain barrier
Experiment: Sucrose uptake assay, permeabilizer A-7 and its 8D and 9D diastereomers
Assay type: in vivo
Conditions: Balb/C mice; various doses i.v. mixed with ^14 C-sucrose; 10 minutes

COc1ccc(C[C@H](CN[C@@H](CCCNC(=N)N)C(=O)O)NC(=O)[C@@H]2CCCN2C(=O)[C@H](CO)NC(=O)[C@H](Cc2cccs2)NC(=O)CNC(=O)[C@@H]2C[C@@H](O)CN2C(=O)[C@@H]2CCCN2C(=O)[C@@H](N)CCCNC(=N)N)cc1 [8D-A-7] (H-RP[Hyp]G[2Thi]SP-X3)
activity compared with permeabilizer A-7 in enhancing ^14 C-sucrose uptake into brain: about equally active
